Some results were stated once for a whole list of compounds, not compound by compound. At least one structure is not confirmed: it was looked up by name or label, or the drawing left a doubt.
Experiments:
[1] = system: permanent cerebral ischemia model rats; test: Permanent cerebral ischemia (MCAO, suture method) rat model; conditions: for Average score of neurological impairment / Relative cerebral infarction volume(%): 40 mg/kg i.v. 30 min before insertion of thread and 12 h after embolism; for Average score of neurological impairment: Longa 5-grade score 24 h after embolism; for Relative cerebral infarction volume(%): TTC; for Relative cerebral infarction volume(%) / MDA content (mmol/mL) / SOD activity (U/mL): 24 h after embolism; for Number of apoptotic cells / Fas average gray scale / IL-1β content (ng/mL) / TNF-α content (ng/mL) / MDA content (mmol/mL) / SOD activity (U/mL): 40 mg/kg i.v.; for Number of apoptotic cells / Fas average gray scale: brain sections; for Number of apoptotic cells: TUNEL; for Fas average gray scale: immunohistochemistry, gray scale inversely proportional to expression; for IL-1β content (ng/mL) / TNF-α content (ng/mL): brain tissue homogenate; for MDA content (mmol/mL) / SOD activity (U/mL): serum
[2] = system: rats with cerebral ischemic reperfusion injury; test: Cerebral ischemic reperfusion (MCAO, suture method) rat model; format: in vivo; conditions: for Average score of neurological impairment / Relative cerebral infarction volume(%): 40 mg/kg i.v. 30 min before and 12 h after reperfusion; for Average score of neurological impairment: Longa 5-grade score 24 h after reperfusion; for Relative cerebral infarction volume(%): TTC; for Relative cerebral infarction volume(%) / MDA content (mmol/mL) / SOD activity (U/mL): 24 h after reperfusion; for Number of apoptotic cells / Fas average gray scale / IL-1β content (ng/mL) / TNF-α content (ng/mL) / MDA content (mmol/mL) / SOD activity (U/mL): 40 mg/kg i.v.; for Number of apoptotic cells / Fas average gray scale: brain sections; for Number of apoptotic cells: TUNEL; for Fas average gray scale: immunohistochemistry, gray scale inversely proportional to expression; for IL-1β content (ng/mL) / TNF-α content (ng/mL): brain tissue homogenate; for MDA content (mmol/mL) / SOD activity (U/mL): serum

| Compound | Average score of neurological impairment [1] | IL-1β content (ng/mL) [1] | TNF-α content (ng/mL) [1] | MDA content (mmol/mL) [1] | SOD activity (U/mL) [1] | Average score of neurological impairment [2] | IL-1β content (ng/mL) [2] | TNF-α content (ng/mL) [2] | MDA content (mmol/mL) [2] | SOD activity (U/mL) [2] | further results |
| --- | --- | --- | --- | --- | --- | --- | --- | --- | --- | --- | --- |
| CC(=O)Oc1c(C(C)C)cc(-c2cc(C(C)C)c(OC(C)=O)c(C(C)C)c2)cc1C(C)C [Example 3, 3,3′,5,5′-tetraisopropylbiphenyl-4′-diacetate] | substantially improve the neurological impairment | effectively down-regulate cellular IL-1β and TNF-α expression | effectively down-regulate cellular IL-1β and TNF-α expression | reducing the serum MDA content | significantly reduce the consumption of the endogenous oxygen free radical scavenger SOD | substantially improve the neurological impairment | effectively down-regulate cellular IL-1β and TNF-α expression | effectively down-regulate cellular IL-1β and TNF-α expression | reducing the serum MDA content | significantly reduce the consumption of the endogenous oxygen free radical scavenger SOD | Relative cerebral infarction volume(%) ([1]; listed as Compound 3): significantly reduce the cerebral infarction volume; Number of apoptotic cells [1]: effective inhibit brain cell apoptosis; Fas average gray scale [1]: effectively down-regulate cellular Fas expression; Relative cerebral infarction volume(%) ([2]; listed as Compound 3): significantly reduce the cerebral infarction volume; Number of apoptotic cells [2]: effective inhibit brain cell apoptosis; Fas average gray scale [2]: effectively down-regulate cellular Fas expression |
| CC(=O)Oc1c(C(C)C)cc(-c2cc(C(C)C)c(O)c(C(C)C)c2)cc1C(C)C [Example 2, 4′-hydroxy-3,3′,5,5′-tetraisopropylbiphenyl-4-acetate] | substantially improve the neurological impairment | effectively down-regulate cellular IL-1β and TNF-α expression | effectively down-regulate cellular IL-1β and TNF-α expression | reducing the serum MDA content | significantly reduce the consumption of the endogenous oxygen free radical scavenger SOD | substantially improve the neurological impairment | effectively down-regulate cellular IL-1β and TNF-α expression | effectively down-regulate cellular IL-1β and TNF-α expression | reducing the serum MDA content | significantly reduce the consumption of the endogenous oxygen free radical scavenger SOD | Relative cerebral infarction volume(%) ([1]; listed as Compound 2): significantly reduce the cerebral infarction volume; Number of apoptotic cells ([1]; listed as Compound 2): effective inhibit brain cell apoptosis; Fas average gray scale ([1]; listed as Compound 2): effectively down-regulate cellular Fas expression; Relative cerebral infarction volume(%) ([2]; listed as Compound 2): significantly reduce the cerebral infarction volume; Number of apoptotic cells ([2]; listed as Compound 2): effective inhibit brain cell apoptosis; Fas average gray scale ([2]; listed as Compound 2): effectively down-regulate cellular Fas expression |

Source: US20200179302A1, “USE OF DIPHENOL IN PREPARATION OF MEDICINES FOR PREVENTION AND TREATMENT OF CEREBRAL ISCHEMIA” (XI'AN LIBANG PHARMACEUTICAL CO., LTD, priority 2016, published 2020)
